From PubChem BioAssay AID493014 (National Center for Advancing Translational Sciences (NCATS), 2011)
Some of the results follow. Shown are side measurements of this screen, not its main read-out; they come without a call. Most of these compounds were active or inconclusive in the main read-out, so they are no random draw. Words in brackets tell the shape of the fitted curve; partial curves, single points and poor fits give uncertain potencies.

Experiment: qHTS Assay to Find Inhibitors of Chronic Active B-Cell Receptor Signaling
Conditions: ABC-DLBCL IkBa-CBG/CBR reporter, luminescence ratio (green luciferase fused to IkBa over red control in TMD8 lymphoma cells), 4 h
Summary of the method: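 Compounds up to 46 uM were incubated four hours with TMD8 cells whose green CBG68 luciferase is fused to IkappaBalpha; red CBR luminescence normalised the signal, and concentration-effect curves were fitted to fusion, red and ratio data.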

[1] = measured here: CBR red luminescence, cell number
[2] = measured here: IkBa-CBG green luminescence

| SMILES | AC50 [1] | AC50 [2] |
| --- | --- | --- |
| COc1nc(OC)nc(N2CCC(NC(=O)C(Cc3ccc(C(C)C)cc3)NC(C)=O)CC2)n1 (configuration not stated) | 0.092 µM [rising, full curve, poor fit] | – |
| CN1C2C(Br)CCCCN2c2ccc(F)cc2S1(=O)=O (configuration not stated) | 35.5 µM [falling, single point] | – |
| CN1C(=O)C(c2nnc(Nc3cccc4ccccc34)s2)C2CC1(C)Oc1ccccc12 (configuration not stated) | 25.9 µM [falling, single point] | – |
| COc1ccc(S(=O)(=O)N(C)C[C@@H]2Oc3ccc(NS(=O)(=O)c4cn(C)cn4)cc3C(=O)N([C@@H](C)CO)C[C@@H]2C)cc1 | 29.1 µM [rising, single point] | – |
| CC(C)(C)c1ccc(S(=O)(=O)NCC(=O)Nc2ccc(-c3nc4ccccc4s3)cc2)cc1 | 0.58 µM [rising, full curve, poor fit] | – |
| COC(=O)N1C(=O)[C@@](CC(C)C)(c2ccccc2)N1C(=O)OC | 7.08 µM [falling, full curve, poor fit] | – |
| CCOc1cc(C(=O)Nc2cccc3ncccc23)cc(OCC)c1OCC | 7.31 µM [rising, partial curve, poor fit] | – |
| COC(=O)c1ccccc1NC(=O)NC1CCCCC1 | 35.5 µM [falling, partial curve, poor fit] | – |
| COCc1cc(=O)[nH]c(Nc2nc3ccccc3o2)n1 | 0.891 µM [falling, full curve] | – |
| CCOC(=O)c1cc(-c2cc3ccccc3o2)n[nH]1 | 1.3 µM [rising, partial curve] | – |
| CCCn1c(N2CCN(C(=O)Nc3ccccc3)CC2)nc2ccccc21 | 35.5 µM [falling, partial curve, poor fit] | – |
| CCNC(=O)CC1C(=O)N(c2ccc(C)cc2)C(=O)N1CCc1ccc(OC)c(OC)c1 (configuration not stated) | 7.08 µM [rising, partial curve, poor fit] | – |
| CC(=O)c1ccc(NC(=O)CCCN2C(=O)C(c3ccccc3)Oc3cccnc32)cc1 (configuration not stated) | 2.82 µM [rising, single point] | – |
| Cc1ccc(/C=N/NC(=O)c2cc(-c3ccc(C)o3)[nH]n2)cc1 | 0.282 µM [falling, full curve, poor fit] | – |
| O=C(COC(=O)c1ccccc1[N+](=O)[O-])NCCCc1ccccc1 | 35.5 µM [rising, partial curve, poor fit] | – |
| CC(C)OC(=O)C(C)Nc1n[nH]c(=S)[nH]c1=O (configuration not stated) | 35.5 µM [rising, single point] | – |
| Cc1cccc(C)c1NC(=O)N1CCN(c2nc3ccccc3s2)CC1 | 6.51 µM [rising, single point] | – |
| N#Cc1c2ccc(O)cc2n2ccccc12 | 22.4 µM [falling, single point] | 12.6 µM [rising, single point] |
| Oc1ccccc1Nc1nc(NCc2ccccc2)c2ccccc2n1 | 31.6 µM [falling, single point] | – |
| Cc1ccc(NC(=S)NC(=O)c2ccccc2)cc1NC(=S)NC(=O)c1ccccc1 | 1 µM [falling, full curve] | – |
| CCOC(=O)c1csc(NC(=O)c2cccs2)n1 | 15.8 µM [falling, single point] | – |

A draw from above in order of length of the SMILES, low to high.

| SMILES | AC50 [1] | AC50 [2] |
| --- | --- | --- |
| CC(C)OC(=O)C(C)Nc1n[nH]c(=S)[nH]c1=O (configuration not stated) | 35.5 µM [rising, single point] | – |
| Cc1cccc(C)c1NC(=O)N1CCN(c2nc3ccccc3s2)CC1 | 6.51 µM [rising, single point] | – |
| CCCn1c(N2CCN(C(=O)Nc3ccccc3)CC2)nc2ccccc21 | 35.5 µM [falling, partial curve, poor fit] | – |
| COC(=O)N1C(=O)[C@@](CC(C)C)(c2ccccc2)N1C(=O)OC | 7.08 µM [falling, full curve, poor fit] | – |

Further records:

| SMILES | AC50 [1] | AC50 [2] |
| --- | --- | --- |
| Cc1cc(/C=C(\C#N)C(=O)NC2CCCCCC2)c(C)[nH]1 | 6.51 µM [falling, partial curve] | – |
| CC(Sc1nnc(CC(C)c2ccccc2)n1N)C(N)=O (configuration not stated) | 0.708 µM [rising, partial curve, poor fit] | – |
| O=C(Cn1nc(-c2ccccc2)ccc1=O)Nc1ccc(N2CCN(C(=O)c3cccs3)CC2)cc1 | 0.282 µM [rising, full curve, poor fit] | – |
| S=C(Nc1ccccc1Cl)N1CCCC(c2ccccc2)=N1 | 0.501 µM [falling, full curve] | – |
| COC(C(=O)N/N=C(\C)c1ccc(C(C)(C)C)cc1)c1ccccc1 (configuration not stated) | 15.8 µM [rising, partial curve, poor fit] | – |
| O=C(Nc1ccc(Cl)c(NC(=O)c2cccs2)c1)c1ccco1 | 11.2 µM [falling, partial curve, poor fit] | – |
| COc1cc(C#Cc2ccc3cc(CCO)oc(=O)c3c2)cc(OC)c1 | 0.0731 µM [rising, full curve, poor fit] | – |
| CC(C)c1ccc(C(=O)Nc2ccc(N3CCOCC3)cc2)cc1 | 1.3 µM [rising, full curve, poor fit] | – |
| CCCCN(C)c1nc(-c2ccco2)c2c(c1C#N)CC(C)(C)OC2 | 11.2 µM [falling, partial curve, poor fit] | 5.62 µM [rising, full curve] |
| COc1cccc(/C=N/Nc2cc(N3CCOCC3)ncn2)c1O | 0.282 µM [falling, full curve, poor fit] | – |
| CCCCN(CCCC)CCn1cnc2c([nH]c3ccc(OC)cc32)c1=O | 5.17 µM [rising, partial curve, poor fit] | – |
| CC(C)c1ccc(N=Cc2c(O)c3ccccc3oc2=O)cc1 | 6.31 µM [falling, partial curve] | – |
| Cc1ccc(C(=O)NC(=S)NCC(=O)c2ccccc2)cc1 | 10 µM [rising, partial curve, poor fit] | – |
| CCCCNC(=O)COC(=O)C1CCN(S(=O)(=O)c2ccc3c(c2)OCCO3)CC1 | 4.11 µM [falling, full curve] | – |
| O=C(Nc1ccc2[nH]ccc2c1)c1cccs1 | 35.5 µM [falling, single point] | – |
| c1ccc(N=C(c2cccs2)N2CCOCC2)cc1 | 5.17 µM [falling, partial curve, poor fit] | – |
| CCCC(=N)C1=C(O)CC(CC(C)SCC)CC1=O (configuration not stated) | 17.8 µM [rising, single point] | – |
| O=C(Oc1c(CN2CCOCC2)cc(Cl)c2cccnc12)c1ccccc1Cl | – | 2.24 µM [falling, partial curve] |
| CC(NC(=O)CN(C)Cc1ccc(Br)cc1)c1ccccc1 (configuration not stated) | 35.5 µM [falling, single point] | – |
| CC(C)(C)OC(=O)NCCCCCNC(=O)c1[nH]cnc1C(=O)Nc1ccon1 | 2.31 µM [falling, partial curve, poor fit] | 0.92 µM [rising, full curve, poor fit] |
| CCc1ccc(CCC(=O)Nc2ccccc2C(=O)O)o1 | 2.51 µM [falling, full curve, poor fit] | – |

| SMILES | AC50 [1] | AC50 [2] |
| --- | --- | --- |
| CC(NC(=O)c1cccc(Cn2cc([N+](=O)[O-])cn2)c1)c1ccc(C(C)(C)C)cc1 (configuration not stated) | 0.206 µM [falling, full curve, poor fit] | – |
| O=[N+]([O-])c1cccc2ccc(/C=C/c3ccc(C(F)(F)F)cc3)nc12 | 0.326 µM [rising, full curve, poor fit] | – |
| COc1ccc(NC(=S)Nc2cccc(C)n2)cc1 | 15.8 µM [rising, partial curve, poor fit] | – |
| CC(=O)N1CCN(CCN=CC2=C(O)CC(c3ccco3)CC2=O)CC1 (configuration not stated) | 5.01 µM [rising, full curve, poor fit] | – |
| O=C(Nc1ccccn1)c1ccc(S(=O)(=O)N2CCCCC2)cc1 | 5.8 µM [falling, full curve] | – |
| CN1CCN(S(=O)(=O)c2cccc(S(=O)(=O)c3cccc(S(=O)(=O)N4CCN(C)CC4)c3)c2)CC1 | 29.1 µM [rising, single point] | – |
| CN1CCN(CCCNC(=O)c2cc3c(-c4ccc(Cl)cc4)nn(C)c3s2)CC1 | 23.1 µM [falling, single point] | 11.6 µM [rising, partial curve, poor fit] |
| COc1ccc(C2C(C(=O)NCc3ccccn3)CCC(=O)N2c2cc(OC)c(OC)c(OC)c2)cc1 (configuration not stated) | 0.282 µM [rising, full curve, poor fit] | – |
| CCOC(=O)Cc1csc(NC(=O)Nc2ccc(C)cc2)n1 | 22.4 µM [falling, single point] | – |
| COc1ccc(/C=C/C(=O)c2ccccn2)cc1 | 28.2 µM [rising, single point] | 35.5 µM [falling, single point] |
| O=C(COc1ccccc1)N1CCc2ccccc2C1 | 29.1 µM [falling, single point] | – |
| Cc1ccc(CNC(=O)COC(=O)c2ccc(Cl)c(N)c2)cc1 | 16.4 µM [falling, partial curve, poor fit] | – |
| COc1ccc(-c2cc(C(F)(F)F)nc(SCC(=O)NCc3ccco3)n2)cc1OC | 0.0291 µM [rising, full curve, poor fit] | – |
| COc1cc(/C=N/O)cc(Br)c1OCc1ccc(Cl)cc1 | 31.6 µM [rising, single point] | – |
| CC(C)Sc1nnc(Nc2ccccc2)s1 | 3.98 µM [rising, partial curve, poor fit] | – |
| Cc1ccccc1C(=O)Nc1nnc(SCC(=O)NC2CC2)s1 | 2 µM [falling, partial curve, poor fit] | – |
| Cc1cccc(CC2S/C(=N/N=C/c3ccco3)N(c3ccccc3)C2=O)c1 (configuration not stated) | 16.4 µM [rising, partial curve] | – |
| O=S(=O)(c1ccc(Br)cc1)c1cnc2ccccc2n1 | 11.2 µM [falling, partial curve] | – |
| Cc1ccc(S(=O)(=O)NCC(=O)NCC(=O)OCc2c(F)cccc2Cl)cc1 | 25.1 µM [falling, single point] | – |
| Cc1c(/C=N/NC(=O)c2ccc3c(c2)OCO3)cnn1C | 12.6 µM [falling, partial curve] | – |
